# Assay results from the supplement of paper PMC3334620.
# Whole data set: some 33,000 sequences, median “E-score (-0.5 to 0.5)” near -0.015, cut for the highest 2% near 0.3. The list shows a part of the results.
# Biological target: T1, Abf1 (UniProt P14164)
# T1 sequence: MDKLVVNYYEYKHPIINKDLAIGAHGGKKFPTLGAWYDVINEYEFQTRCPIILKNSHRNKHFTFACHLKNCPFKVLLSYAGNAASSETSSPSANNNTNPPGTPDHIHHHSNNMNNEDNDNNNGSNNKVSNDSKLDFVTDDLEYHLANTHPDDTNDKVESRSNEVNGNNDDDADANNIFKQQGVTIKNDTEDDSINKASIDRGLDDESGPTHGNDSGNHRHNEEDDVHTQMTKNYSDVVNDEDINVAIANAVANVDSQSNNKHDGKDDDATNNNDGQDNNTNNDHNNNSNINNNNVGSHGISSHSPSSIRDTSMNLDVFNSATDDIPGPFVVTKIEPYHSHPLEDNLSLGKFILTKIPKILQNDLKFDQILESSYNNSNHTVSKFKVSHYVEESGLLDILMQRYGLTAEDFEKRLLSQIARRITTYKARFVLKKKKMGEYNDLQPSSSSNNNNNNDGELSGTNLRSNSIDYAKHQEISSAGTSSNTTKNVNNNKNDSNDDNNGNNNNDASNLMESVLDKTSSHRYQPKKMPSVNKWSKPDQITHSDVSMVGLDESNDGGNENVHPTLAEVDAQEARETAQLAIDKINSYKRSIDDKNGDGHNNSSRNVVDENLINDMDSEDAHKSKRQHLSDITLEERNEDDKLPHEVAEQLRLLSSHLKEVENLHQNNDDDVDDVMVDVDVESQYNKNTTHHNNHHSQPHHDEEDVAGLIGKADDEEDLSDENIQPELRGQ
# Assay: PBM E-score (8-mer binding enrichment) (E-score (-0.5 to 0.5)); higher = stronger / more preferred TF binding
# Settings: protein concentration: 200 nM; construct: GST-full length
# Procedure: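 Universal 'all 10-mer' protein binding microarrays (Agilent AMADID 015681) probed with GST-tagged S. cerevisiae TFs (full-length or DBD) made by in vitro transcription/translation (PURExpress), about 100-200 nM. Bound TF was detected with fluorescent anti-GST. Each ungapped 8-mer (which stands for itself and its reverse complement) is scored by the PBM enrichment score (E-score), a modified Wilcoxon-Mann-Whitney statistic from -0.5 to +0.5, computed with the Universal PBM Analysis Suite. Scale: above 0.35 generally sequence-specific binding.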
row,Sequence,PBM E-score
1,CTCCTTAC,-0.0953
2,AGCGTCCT,-0.122
3,AGTTCCGC,-0.259
4,ACGAGGAT,0.0974
5,AGTGACCG,0.125
6,GCCTAGGC,-0.0604
7,CCTGGCTC,-0.0859
8,ACGTCTAG,0.167
9,CCGACGAA,0.205
10,ACCGTGGA,0.0601
11,CAGTAAGA,0.113
12,ACTCACGG,0.148
13,AGTGGTGC,-0.14
14,GCCTGACC,-0.00528
15,AGGTGAGC,-0.173
16,ACCCCCTG,-0.352
17,CGTCATTA,0.327
18,AACCAACA,-0.00626
19,CGTTTATC,0.297
20,ATCATCCC,0.197
21,ACTAAACA,-0.0138
22,GTCAACCA,-0.152
23,ATGACGAC,0.265
24,ACCACGCG,-0.039
25,ATAGTGGG,-0.075

row,Sequence,PBM E-score
1,CGTGGCAG,0.133
2,GTTAGGGA,-0.072
3,CGCGTGGA,0.00451
4,AACCGCGT,-0.0708
5,CACGTTCG,-0.108
6,CTAGGAGA,-0.236
7,CACAGGTC,-0.0396
8,ATAGGCCG,0.00399
9,GTACTTAA,-0.0261
10,ATACAAAC,0.222
11,CATGAACC,-0.00224
12,CACGTAGC,-0.114
13,CCCCTAAG,-0.15
14,CGTTGCCC,-0.163
15,GAATTGGA,-0.016
16,TGACTCCA,-0.181
17,TTAATAAA,0.123
18,GACCATGC,0.0213
19,GTAATGGA,0.138
20,CCGTCAGG,0.162
21,CCGATACG,0.121
22,ACTCCTGG,-0.316
23,AAGACTTC,-0.0816
24,GGCGCCGA,-0.215
25,AACGAACA,0.215

# Given bar-delimited: part of the list above.
row | Sequence | PBM E-score
24 | GGCGCCGA | -0.215
25 | AACGAACA | 0.215

# The list continues:

row,Sequence,PBM E-score
1,AGCCTGCC,-0.174
2,GAGACCGA,-0.0902
3,TCCAAAAA,0.148
4,CAACGTCA,0.177
5,AATCGCTA,-0.0656
6,CCTAAAGC,-0.215
7,TGAACTCA,0.122
8,GCCCTGAA,0.122
9,ATGAAATA,0.235
10,GGGTAGAA,-0.0486
11,ATCCATAC,0.159
12,GGGAGTAC,-0.171
13,ACCCAACG,-0.0268
14,ATATGGAC,0.0594
15,CCCATTCC,-0.304
16,GCAGGCCC,-0.35
17,CTTCAACC,-0.0665
18,AAGATTAG,0.142
19,AAACTCCC,-0.275
20,GCCTTAGC,-0.114
21,GTGGTCTA,-0.195
22,ATTTTCGA,0.0858
23,GATGTCCC,0.209
24,ACGATGCT,0.248
25,CCTAACCC,-0.275

# Looked up one by one from the entries so far (4):
row,Sequence,PBM E-score
3,TCCAAAAA,0.148
23,GATGTCCC,0.209
22,ATTTTCGA,0.0858
19,AAACTCCC,-0.275

# Further records follow:

row,Sequence,PBM E-score
1,AACTAGAA,0.00854
2,GTCAGGAC,0.0181
3,CTAGTAGA,-0.00223
4,CACGGCCC,0.0309
5,CTTGGGAA,0.0477
6,ACACCGTC,0.065
7,AGCGCCCG,-0.139
8,GCGTTGAA,-0.0702
9,CAGTTGAC,0.00605
10,CCGCGCCA,-0.197
11,AATAGAAC,0.01
12,ACTTTCTC,-0.103
13,GTCGATCA,0.0951
14,GGTTTCAA,-0.0203
15,GCCCGGTA,-0.259
16,ATTGAGCG,0.00117
17,AATGCATG,-0.108
18,CGGACTGC,-0.0758
19,ATTCGTTA,0.233
20,AATCTTGA,-0.16
21,CGTAAATA,0.299
22,ATTTTCCG,0.1
23,AGATCGAG,-0.0692
24,GCCCCCTA,-0.227
25,CAGTTAAC,-0.0314

row,Sequence,PBM E-score
1,GCTGCCCC,-0.172
2,ACCCATAA,0.0543
3,AGGCATGG,-0.0197
4,AATGCTTA,-0.213
5,GGGGTCAA,-0.0161
6,AAACGAGA,-0.0205
7,AGTGCCTG,-0.09
8,GGAAGTCA,0.0206
9,AGCATGCC,-0.245
10,CGCCCGCA,-0.138
11,CACGCTAA,0.0897
12,CAACTGGG,-0.0759
13,CCCTGTTC,-0.22
14,TGGCAGAA,0.0106
15,GATCCCCA,-0.167
16,CGAATCTA,0.0898
17,GTTGCATA,0.0235
18,CTTCCAAG,-0.173
19,GAGCACAC,-0.062
20,ATCTCGCG,0.206
21,ACTGTTTA,0.00268
22,AAGCCATG,-0.172
23,ATGTTAAC,-0.0314
24,AGTCTCAG,-0.142
25,ATCTACTA,0.201

row,Sequence,PBM E-score
1,GATACTTA,0.157
2,CCAATCGA,-0.00987
3,AGCAGCTA,0.0153
4,GACACCGA,0.0438
5,AACATAAG,0.00727
6,CACTCAGG,-0.15
7,AACCCACC,0.00672
8,CTCTTCAA,-0.162
9,ACGAACTA,0.266
10,ACTAATAG,0.0504
11,TCGGTCCA,-0.0605
12,ATGGCGAC,-0.0407
13,GTACTGTA,-0.0824
14,AAACTGAC,-0.164
15,GATTTTCC,-0.0479
16,AAACACAG,-0.0396
17,CCCGTTAC,0.028
18,TCGTCAAA,0.233
19,AGCGAAGA,-0.0102
20,AAGCTCCG,-0.0781
21,CTACGGTA,0.138
22,CGGGGTGC,-0.252
23,AAACTGCT,-0.00508
24,GAGATGTA,0.118
25,CTGCTGTA,-0.0677

row,Sequence,PBM E-score
1,GAAGAAGA,0.101
2,CCTGCTTA,-0.0442
3,CTTGTTAA,-0.072
4,AACTGCCT,0.0853
5,ATCCCCTC,0.00375
6,CGTACGAA,0.447
7,AAACTGTC,0.0845
8,AAGGGTTG,0.0233
9,CTCGCATA,-0.0654
10,ACTAGTCA,-0.0738
11,ATACAGAT,0.124
12,GTGCCAAA,0.121
13,CCCGATAC,-0.0131
14,CCGGCCCA,-0.227
15,CTACGAAC,0.275
16,AAGTTACC,0.146
17,AAATATCA,0.376
18,TCTGAACA,0.0535
19,GAAACGTC,0.0902
20,CTATTAGA,-0.0837
21,CCAATAGG,-0.13
22,ATGGTCTA,-0.221
23,GTTAATTA,0.247
24,CTTTAACA,0.119
25,AGAGTGAT,0.387

# Part of the list above in another layout:
row	Sequence	PBM E-score
8	AAGGGTTG	0.0233
9	CTCGCATA	-0.0654
10	ACTAGTCA	-0.0738
11	ATACAGAT	0.124

# Continued.

row,Sequence,PBM E-score
1,CGCGGCGA,-0.0396
2,AACGGACG,0.065
3,AGCCGGGA,-0.0729
4,ACGGTTCT,0.0581
5,ATGTCAGC,0.0322
6,ATGTTCTC,-0.0935
7,CTACTTTC,0.192
8,AAAATAAA,0.0577
9,CGGTCGAC,0.0163
10,GTGTGCGA,-0.0531
11,GTTGAGGA,-0.106
12,AGTTATGA,0.0705
13,ATCGAGTA,-0.086
14,TCCACTCA,-0.148
15,CTTTGTGC,0.0301
16,ATACCCTC,-0.0637
17,CCGCATTA,0.0289
18,CGGCGAAC,0.0381
19,TGATGCCA,0.121
20,CGGTTGTA,-0.121
21,ATTCAAAA,0.194
22,CCGGATAG,-0.0305
23,AATGCAGC,-0.0494
24,GGGGCATA,-0.184
25,ACCAAAAG,0.00795

row,Sequence,PBM E-score
1,TAATTTCA,0.204
2,AGGCTGCG,-0.206
3,CCTGGGCC,-0.223
4,TCATAAGA,0.00333
5,CGCGGTAC,0.0499
6,TACATCCA,0.123
7,ACCGAGTG,-0.0112
8,GACTCTAA,-0.185
9,AGTATTCA,-0.0356
10,TCATCCCA,0.0819
11,CCAGTAAA,0.00508
12,CGACCGGA,-0.246
13,GTGGAAGA,-0.0229
14,ACTGGCGG,-0.124
15,GTAAGTCA,0.0282
16,CTAGGTGC,-0.0851
17,ACAGAGAA,0.0471
18,CGGCCGAC,0.125
19,TATTGAGA,0.241
